# The list shows a part of the results. These are further read-outs of the screen, such as a control signal, another cell line or another target. No call is given for them. Compounds called inactive in the main read-out are mostly missing here. Words in brackets tell the shape of the fitted curve; partial curves, single points and poor fits give uncertain potencies.
# Assay: qHTS Assay to Find Inhibitors of Chronic Active B-Cell Receptor Signaling
# Conditions: ABC-DLBCL IkBa-CBG/CBR reporter, luminescence ratio (green luciferase fused to IkBa over red control in TMD8 lymphoma cells), 4 h
# In short: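 Compounds up to 46 uM were incubated four hours with TMD8 cells whose green CBG68 luciferase is fused to IkappaBalpha; red CBR luminescence normalised the signal, and concentration-effect curves were fitted to fusion, red and ratio data.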
# [1] = measured here: CBR red luminescence, cell number
Compound,AC50 [1],AC50 (measured here: IkBa-CBG green luminescence)
CC1CCN(C(=O)Cn2cc3c(n2)CCCC3)CC1,"29.1 µM [rising, single point]",–
Cc1cc(NC(=O)COC(=O)c2cc([N+](=O)[O-])ccc2N2CCOCC2)ccc1Br,"7.31 µM [rising, partial curve, poor fit]",–
O=[N+]([O-])c1ccc(CN2CCN(c3ccc4ccccc4n3)CC2)cc1,"35.5 µM [rising, single point]",–
CNC(=O)/C=C/c1cccc(C(F)(F)F)c1,"6.51 µM [rising, full curve, poor fit]",–
Cc1ccc(S(C)=O)cc1-n1c(=O)n(Cc2ccccc2)c(=O)c2[nH]cnc21 (stereo not given),"2.82 µM [rising, single point]",–
Cc1cccc(NC(=O)Cn2cnc3c(oc4ccccc43)c2=O)c1,"22.4 µM [rising, single point]",–
COc1ccc(CCNC(=O)C(=O)NCC(c2ccco2)S(=O)(=O)c2ccc(F)cc2)cc1 (stereo not given),"7.94 µM [rising, single point]",–
CCCCn1c(C)nc2cc(S(=O)(=O)N3CCOCC3)ccc21,"23.1 µM [rising, partial curve, poor fit]",–
C=CCCC(=O)Nc1ccc(COC(=O)N2CCOCC2)cc1,"6.51 µM [falling, single point]",–
CC(=O)N1/C(=C/c2ccc(N(C)C)cc2)C(=O)c2ccccc21,"35.5 µM [falling, single point]",–
C=CCOc1cccc(C(=O)N2CCC(CCC(=O)NC3CC3)CC2)c1,"6.31 µM [falling, partial curve, poor fit]",–
COc1ccc(CNC(=O)CN(C(=O)CCC(=O)Nc2ccccn2)c2ccccc2OC)cc1,"3.98 µM [falling, partial curve, poor fit]",–
COC(=O)CCCCCNc1ccc(C(=O)OC)cc1N,"8.2 µM [falling, partial curve]",–
CC(=O)C1=C(O)C(=O)N(c2nccs2)C1c1ccc(Br)cc1 (stereo not given),"2.59 µM [rising, partial curve, poor fit]",–
O=C(Nc1ccccc1)OCc1cc(-c2ccccc2Cl)on1,"1.78 µM [rising, full curve, poor fit]",–
O=C(Nc1ccc(N2CCCCCC2)cc1)c1ccc[nH]1,"20.6 µM [falling, partial curve]",–
C/C(=N/Nc1ccc([N+](=O)[O-])cc1)c1ccc(C)cc1C,"0.708 µM [rising, partial curve]",–
CNC(=O)c1c(Br)cnn1-c1ccc(C)cc1,"25.1 µM [rising, single point]",–
COc1cc(-c2ccc(Nc3ccccc3C(=O)O)c(OC)c2)ccc1Nc1ccccc1C(=O)O,"11.2 µM [falling, single point]",–
O=C(/C=C\c1ccccc1[N+](=O)[O-])Nc1ccccc1,"8.91 µM [falling, partial curve, poor fit]",–
COc1ccccc1-n1c(C)nc(=O)c(-c2ccccc2)c1C,"4.61 µM [rising, full curve, poor fit]",–
O=Nc1c(-c2ccccc2)[nH]n(-c2ccccc2)c1=O,"11.2 µM [falling, partial curve]",–

# Shown with bars between the fields: entries from further up
Compound | AC50 [1] | AC50 (measured here: IkBa-CBG green luminescence)
O=C(Nc1ccccc1)OCc1cc(-c2ccccc2Cl)on1 | 1.78 µM [rising, full curve, poor fit] | –
O=C(Nc1ccc(N2CCCCCC2)cc1)c1ccc[nH]1 | 20.6 µM [falling, partial curve] | –
C/C(=N/Nc1ccc([N+](=O)[O-])cc1)c1ccc(C)cc1C | 0.708 µM [rising, partial curve] | –

# (further entries)

Compound,AC50 [1],AC50 (measured here: IkBa-CBG green luminescence)
CCCC(=O)Nc1ccc(-c2nc3cc(C)ccc3o2)cc1,"7.31 µM [falling, partial curve, poor fit]",–
Cc1ccc2c(c1)sc(C)[n+]2CCCS(=O)(=O)[O-],"0.708 µM [rising, full curve, poor fit]",–
CC(C)c1nn2c(=O)cc(COc3cccc(NC(=O)c4ccco4)c3)nc2s1,"0.631 µM [falling, full curve]",–
CCOC(=O)N/N=C/c1cn(Cc2ccccc2Cl)c2ccccc12,"29.1 µM [falling, single point]",–
CCC(C)NC(=O)c1cnn2c(C)c3c(nc12)CCCC3 (stereo not given),"5.62 µM [rising, single point]",–
CNc1ccc(Br)cc(C(=O)/C=C/c2ccc(Cl)cc2Cl)c1=O,"11.2 µM [falling, single point]",–
CC(C)C(=O)Nc1nnc(COc2ccc(Cl)cc2)s1,"15.8 µM [rising, partial curve, poor fit]",–
COC(=O)C1=C(C)N(Cc2ccccc2)C(=NCCc2cccnc2)N[C@H]1c1ccccc1,"35.5 µM [falling, single point]",–
CCOC(=O)c1cc(-c2ccccc2)n(CC(=O)Nc2cc(OC)cc(OC)c2)c1C,"9.2 µM [rising, partial curve]",–
CCC(=O)N(CCC(c1ccco1)C(C)C)Cc1ccccc1 (stereo not given),"22.4 µM [falling, single point]",–
CSc1ccccc1Nc1ncnc(N)n1,"17.8 µM [falling, single point]",–
CCN(CC)S(=O)(=O)c1ccc(-c2nnc(SCC(=O)Nc3ccc(OC)cc3)o2)cc1,"20.6 µM [rising, partial curve]",–
Cc1ccc(S(=O)(=O)NCc2ccc(C(=O)NC3CCC(O)CC3)cc2)cc1C (stereo not given),"29.1 µM [rising, single point]",–
COc1ccc(-c2nn(Cc3ccccc3)cc2C(=O)N2CCN(c3ccccn3)CC2)cc1OC,"6.51 µM [rising, single point]",–
CC1CCN(c2ccc(/C=N\Nc3nncn3N)cc2[N+](=O)[O-])CC1,"6.51 µM [rising, single point]",–
CCCc1cc(NCCCn2ccnc2)n2nc(C)c(-c3ccccc3)c2n1,"2.82 µM [rising, single point]",–
O=C(COc1ccc(NC(=O)c2cccs2)cc1)c1ccc(F)cc1,"14.1 µM [rising, single point]",–
COC(=O)C/C=N/N=C1/NC(=O)/C(=C/C(=O)O)S1,"3.16 µM [falling, full curve]",–
CC(=O)n1nc(-c2ccncc2)nc1SCC(=O)Nc1cccc(Cl)c1,"8.91 µM [falling, partial curve]",–
NC(=O)c1ccc(C(F)(F)F)n(Cc2ccc(F)c(F)c2)c1=O,"12.6 µM [falling, partial curve, poor fit]",–
NNC(=O)c1ccc(COc2ccc([N+](=O)[O-])cc2)o1,"0.112 µM [falling, full curve, poor fit]",–
Cc1ccc(-c2n[nH]c(=O)c3ccccc23)cc1S(=O)(=O)Nc1ccccc1,"1.46 µM [falling, partial curve, poor fit]",–

Compound,AC50 [1],AC50 (measured here: IkBa-CBG green luminescence)
Cc1ccc(S(=O)(=O)NC(=O)Nc2ccc(C)cc2C)cc1,"14.1 µM [rising, partial curve, poor fit]",–
COc1ccc(OC)c(NC(=O)c2cccc(NC(=O)c3ccccc3)c2)c1,"12.6 µM [falling, partial curve, poor fit]",–
O=C(Nc1c(-c2ccccc2)nc2c(Br)cc(Br)cn12)c1ccco1,"35.5 µM [rising, single point]",–
CCn1c(=O)c(C(=O)NNC(=O)c2ccccc2Cl)c(O)c2ccccc21,"4.47 µM [falling, partial curve, poor fit]",–
COc1ccc(CNC(=O)C2CCC(CNC(=O)[C@@H]3Cc4ccccc4CN3)CC2)cc1 (stereo not given in full),"6.31 µM [falling, partial curve]",–
COc1ccc(C(=O)NC(=S)Nc2ccc3c4c(cccc24)CC3)cc1OC,"2.06 µM [rising, full curve]",–
C/C(=N\NC(=O)c1cccc(C)c1O)c1ccc(NC(=O)Cc2ccccc2)cc1,"22.4 µM [falling, single point]",–
Cc1noc(C)c1NC(=O)Nc1cccc2c1O[C@H](CN(C)C(=O)Nc1ccc(C(F)(F)F)cc1)[C@@H](C)CN([C@H](C)CO)C2=O,"14.6 µM [rising, partial curve, poor fit]",–
COc1nc(SCC(=O)Nc2ccccc2Cl)nc(N(C)C)n1,"35.5 µM [falling, partial curve, poor fit]",–
COc1ccc2c(c1)oc(=O)c1cc(OC)ccc12,"3.16 µM [rising, single point]",–
O=c1c(=Nc2ccccc2O)c(=O)c2ccccc12,"12.6 µM [falling, partial curve]",–
CC(=O)n1cc(/C=N/NC(=O)c2ccccc2O)c2ccccc21,"6.31 µM [falling, partial curve]",–
Cc1ccccc1C(=O)NC(=S)Nc1ccc(S(=O)(=O)N(C)c2ccccc2)cc1,"3.66 µM [falling, full curve]",–
COc1ccccc1/C=C1\SC(=S)N(CC(=O)Nc2nnc(C)s2)C1=O,"3.55 µM [rising, single point]",–
CCN(CC)c1nc(N)c2c(N)n(-c3ccccc3C)c(=S)c(C#N)c2c1C#N,"9.2 µM [falling, partial curve]",–
COc1ccc(C(=O)/C=C/c2ccc(OC)c(O)c2)c(F)c1,"11.6 µM [falling, partial curve, poor fit]",–
CC1CCN(C(=S)NC(=O)c2ccco2)CC1,–,"22.4 µM [falling, partial curve, poor fit]"
Fc1ccc(C2CCNCC2COc2ccc3c(c2)OCO3)cc1 (stereo not given),"35.5 µM [falling, single point]",–
COc1ccc(-c2nc3ccccn3c2Cl)cc1,"6.31 µM [rising, full curve, poor fit]",–
CC1=C(C(=O)O)N2C(=O)C(NC(=O)c3ccc(F)cc3)C2SC1 (stereo not given),"25.9 µM [falling, single point]",–
COc1ccc(OC)c(/C=N/NC(=O)c2cc3c(OC)cccc3[nH]2)c1,"3.98 µM [falling, full curve]",–
